For test [1], the target named is flag-tagged human L1 ORF1 protein (human) (UniProt Q9UN81). Put plainly: co-IP; HeLa cells transfected with FLAG-ORF1p, with or without a KPNA2 or KPNB1 plasmid; lysate on Anti-FLAG beads; KPNA2 and KPNB1 detected by western blot. For orientation: A western blot detects proteins with antibodies after separation by electrophoresis.
The target of the next test is FLAG-tagged KPNA5 (UniProt O15131). Put plainly: co-IP; HeLa cells co-transfected with a FLAG-tagged KPNA and untagged ORF1p; lysate in TLB (50 mM Tris, 150 mM NaCl, 10 mM EDTA, 0.5% Triton X-100, pH 7.2) diluted in TBS; Anti-Flag M2 affinity gel overnight at 4 degrees Celsius; ORF1p detected by western blot with hORF1 antibodies.
The target in a further test is FLAG-tagged KPNA1 (UniProt P52294). The test is described as above.
The target in the next test is FLAG-tagged KPNA3 (UniProt O00505). Described as above.
The target of another test is FLAG-tagged KPNA4 (UniProt O00629). The description is as above.
For a further test, the target named is FLAG-tagged KPNA6 (UniProt O60684). The test is described as above.

Protein sequences, listed by entry. Tags and fused reporters are not part of them.
UniProt Q9UN81: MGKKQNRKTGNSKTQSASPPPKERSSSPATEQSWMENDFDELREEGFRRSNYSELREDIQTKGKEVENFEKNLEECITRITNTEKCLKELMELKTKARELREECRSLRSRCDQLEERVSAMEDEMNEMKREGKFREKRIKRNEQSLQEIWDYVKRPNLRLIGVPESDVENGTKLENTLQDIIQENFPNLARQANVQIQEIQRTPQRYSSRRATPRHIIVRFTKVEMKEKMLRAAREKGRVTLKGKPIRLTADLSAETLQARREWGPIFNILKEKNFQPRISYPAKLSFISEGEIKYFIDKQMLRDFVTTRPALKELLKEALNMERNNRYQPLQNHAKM
UniProt O15131: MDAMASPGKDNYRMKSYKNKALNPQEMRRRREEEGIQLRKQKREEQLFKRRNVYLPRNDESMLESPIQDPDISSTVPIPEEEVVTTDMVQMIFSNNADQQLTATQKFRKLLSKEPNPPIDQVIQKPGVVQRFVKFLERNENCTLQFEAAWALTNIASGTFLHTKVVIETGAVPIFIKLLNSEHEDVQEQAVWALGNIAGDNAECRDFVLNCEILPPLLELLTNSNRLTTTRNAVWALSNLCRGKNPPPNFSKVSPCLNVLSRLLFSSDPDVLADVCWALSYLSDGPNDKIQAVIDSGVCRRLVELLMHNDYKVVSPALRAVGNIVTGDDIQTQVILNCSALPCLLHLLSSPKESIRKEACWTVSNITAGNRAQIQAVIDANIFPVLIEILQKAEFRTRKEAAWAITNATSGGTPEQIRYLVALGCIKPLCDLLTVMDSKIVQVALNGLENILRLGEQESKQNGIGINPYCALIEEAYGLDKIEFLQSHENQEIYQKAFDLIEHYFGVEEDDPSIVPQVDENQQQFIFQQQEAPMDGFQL
UniProt P52294: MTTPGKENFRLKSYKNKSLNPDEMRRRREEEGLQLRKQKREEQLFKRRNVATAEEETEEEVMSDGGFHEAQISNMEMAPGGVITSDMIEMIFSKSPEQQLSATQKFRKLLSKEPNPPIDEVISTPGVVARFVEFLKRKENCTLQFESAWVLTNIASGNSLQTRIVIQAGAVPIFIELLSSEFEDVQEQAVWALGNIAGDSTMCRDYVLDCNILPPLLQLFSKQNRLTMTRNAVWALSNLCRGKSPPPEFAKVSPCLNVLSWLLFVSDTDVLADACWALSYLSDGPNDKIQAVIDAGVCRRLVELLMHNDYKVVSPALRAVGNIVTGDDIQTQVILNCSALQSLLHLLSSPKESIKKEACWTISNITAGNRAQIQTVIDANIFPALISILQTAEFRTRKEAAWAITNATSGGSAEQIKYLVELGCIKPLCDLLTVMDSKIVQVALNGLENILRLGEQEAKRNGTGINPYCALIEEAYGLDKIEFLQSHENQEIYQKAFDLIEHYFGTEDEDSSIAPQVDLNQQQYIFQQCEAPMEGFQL
UniProt O00505: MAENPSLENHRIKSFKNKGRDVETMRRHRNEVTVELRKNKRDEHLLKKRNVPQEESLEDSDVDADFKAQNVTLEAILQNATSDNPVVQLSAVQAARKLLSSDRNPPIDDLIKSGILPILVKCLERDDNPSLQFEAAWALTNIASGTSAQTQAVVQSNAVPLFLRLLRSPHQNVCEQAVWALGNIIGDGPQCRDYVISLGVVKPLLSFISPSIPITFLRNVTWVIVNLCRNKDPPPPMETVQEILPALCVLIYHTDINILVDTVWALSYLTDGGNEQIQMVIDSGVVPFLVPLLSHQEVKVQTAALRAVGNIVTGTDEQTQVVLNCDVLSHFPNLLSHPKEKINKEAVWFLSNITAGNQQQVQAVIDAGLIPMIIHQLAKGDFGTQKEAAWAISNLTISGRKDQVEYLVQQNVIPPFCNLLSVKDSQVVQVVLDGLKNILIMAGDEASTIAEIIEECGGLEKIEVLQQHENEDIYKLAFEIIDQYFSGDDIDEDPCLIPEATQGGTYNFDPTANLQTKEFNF
UniProt O00629: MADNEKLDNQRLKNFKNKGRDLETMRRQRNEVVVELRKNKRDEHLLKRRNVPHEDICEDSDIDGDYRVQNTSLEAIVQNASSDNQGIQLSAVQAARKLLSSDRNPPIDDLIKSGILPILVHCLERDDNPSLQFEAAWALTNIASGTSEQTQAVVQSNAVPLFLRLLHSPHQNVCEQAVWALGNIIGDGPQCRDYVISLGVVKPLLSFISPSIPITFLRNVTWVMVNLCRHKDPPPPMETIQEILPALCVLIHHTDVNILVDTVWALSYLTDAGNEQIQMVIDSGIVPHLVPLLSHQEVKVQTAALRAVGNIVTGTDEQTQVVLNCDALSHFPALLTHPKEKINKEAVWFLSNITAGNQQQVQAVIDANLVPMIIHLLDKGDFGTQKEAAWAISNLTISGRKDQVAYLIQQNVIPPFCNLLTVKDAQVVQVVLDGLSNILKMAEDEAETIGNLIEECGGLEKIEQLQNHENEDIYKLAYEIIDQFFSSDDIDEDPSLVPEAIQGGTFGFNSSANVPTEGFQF
UniProt Q14974: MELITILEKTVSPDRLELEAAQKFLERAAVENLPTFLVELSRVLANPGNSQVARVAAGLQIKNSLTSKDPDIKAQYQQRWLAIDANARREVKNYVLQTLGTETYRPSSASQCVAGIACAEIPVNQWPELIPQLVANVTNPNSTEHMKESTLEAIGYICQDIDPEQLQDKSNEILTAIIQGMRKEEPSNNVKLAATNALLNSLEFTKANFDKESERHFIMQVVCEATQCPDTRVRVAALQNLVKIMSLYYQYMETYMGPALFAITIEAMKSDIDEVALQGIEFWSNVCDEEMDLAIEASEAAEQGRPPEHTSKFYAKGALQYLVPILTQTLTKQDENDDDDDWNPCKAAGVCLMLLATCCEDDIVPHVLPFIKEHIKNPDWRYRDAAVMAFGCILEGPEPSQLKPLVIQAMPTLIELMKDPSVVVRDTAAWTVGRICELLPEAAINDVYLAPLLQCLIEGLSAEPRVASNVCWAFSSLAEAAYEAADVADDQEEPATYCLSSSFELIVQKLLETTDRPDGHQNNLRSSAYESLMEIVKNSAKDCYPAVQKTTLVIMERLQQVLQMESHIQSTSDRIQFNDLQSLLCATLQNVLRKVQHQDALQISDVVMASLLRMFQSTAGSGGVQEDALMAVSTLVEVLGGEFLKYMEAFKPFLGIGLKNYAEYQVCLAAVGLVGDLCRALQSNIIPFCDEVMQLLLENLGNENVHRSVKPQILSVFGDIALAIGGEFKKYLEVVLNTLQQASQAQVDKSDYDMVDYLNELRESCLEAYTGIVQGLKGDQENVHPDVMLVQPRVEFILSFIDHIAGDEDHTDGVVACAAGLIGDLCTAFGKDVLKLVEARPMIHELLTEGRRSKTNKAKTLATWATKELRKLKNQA

This note sets out measurements from article PMC6501352.

No constants are given. Whether binding was seen depends on the method and setting. In cells and extracts the contact can be indirect. Some entries that bind do so weakly or less than the wild type.

As to “endogenous KPNB1 (from UniProt Q14974 1-876)”, the binding entry in test [1] is recorded as “binds”.

In the case of “overexpressed wild type KPNB1 (from UniProt Q14974 1-876)”, in test [1], the binding entry is “binds”.

For “untagged wild type human L1 ORF1 protein (from UniProt Q9UN81 1-338)”, the binding result with FLAG-tagged KPNA5, with FLAG-tagged KPNA1, with FLAG-tagged KPNA3, with FLAG-tagged KPNA4 and with FLAG-tagged KPNA6 was “binds” each time.
